The text below walks through data of PMC11079228.

These are yes or no findings as the source states them, for the method shown. Binding seen in cells or lysates may run through a third protein. A yes stands for co-enrichment or nearness to the bait. Other partners may have been found.

The experiment deals with Huntingtin-interacting protein 1 (rat) (rat (endogenous in rat FLS)). The experiment is described as follows: affinity purification with mass spectrometry; rabbit anti-rat-HIP1 antibody (20 μg per sample) on Dynabeads M-270 Epoxy; total lysates of rat FLS (one DA and one R6 cell line, each in triplicate), starved 24 h, then PDGFβ 100 ng/mL 30 min; lysis in water with protease and phosphatase inhibitors by three freeze-thaw cycles; elution with 8 M urea, LysC and trypsin, nano-LC-MS/MS, label-free quantitation.

B1: PPP4C (protein, UniProt Q5BJ92 1-307)
chain: MAEISDLDRQIEQLRRCELIKESEVKALCAKAREILVEESNVQRVDSPVTVCGDIHGQFYDLKELFRVGGDVPETNYLFMGDFVDRGFYSVETFLLLLALKVRYPDRITLIRGNHESRQITQVYGFYDECLRKYGSVTVWRYCTEIFDYLSLSAIIDGKIFCVHGGLSPSIQTLDQIRTIDRKQEVPHDGPMCDLLWSDPEDTTGWGVSPRGAGYLFGSDVVAQFNAANDIDMTCRAHQLVMEGYKWHFNETVLTVWSAPNYCYRCGNVAAILELDEHLQKDFIIFEAAPQETRGIPSKKPVADYFL
Consider B1, for which the binding result is reported as “binds”.

B2: PSMD1 (protein, UniProt O88761 1-953)
chain: MITSAAGIISLLDEEEPQLKEFALHKLNAVVNDFWAEISESVDKIEVLYEDEGFRSRQFAALVASKVFYHLGAFEESLNYALGAGDLFNVNDNSEYVETIIAKCIDHYTKQCVENADLPEGEKKPIDQRLEGIVNKMFQRCLDDHKYKQAIGIALETRRLDVFEKTILESNDVPGMLAYSLKLCMSLMQNKQFRNKVLRVLVKIYMNLEKPDFINVCQCLIFLDDTQAVSDILEKLVKEDNLLMAYQICFDLYESASQQFLSSVIQNLRTVGTPIASVPGSTNTGTVPGPEKDSDSMETEEKTAGAVAGKTPDASPEPKDQTLKMIKILSGEMAIELHLQFLIRNNNTDLMILKNTKDAVRNSVCHTATVIANSFMHCGTTSDQFLRDNLEWLARATNWAKFTATASLGVIHKGHEKEALQLMATYLPKDTSPGSAYQEGGGLYALGLIHANHGGDIIDYLLNQLKNASNDIVRHGGSLGLGLAAMGTARQDVYDLLKTNLYQDDAVTGEAAGLALGLVMLGSKNTQAIEDMVGYAQETQHEKILRGLAVGIALVMYGRMEEADALIESLCRDKDPILRRSGMYTVAMAYCGSGNNKAIRRLLHVAVSDVNDDVRRAAVESLGFILFRTPEQCPSVVSLLSESYNPHVRYGAAMALGVCCAGTGNKEAINLLEPMTNDPVNYVRQGALIASALIMIQQTEITCPKVNQFRQLYSKVINDKHDDVMAKFGAILAQGILDAGGHNVTISLQSRTGHTHMPSVVGVLVFTQFWFWFPLSHFLSLAYTPTCIIGLNKDLKMPKVQYKSNCKPSTFAYPAPLEVPKEKEKEKVSTAVLSITAKAKKKEKEKEKKEEEKMEVDEAEKKEEKEKKKEPEPNFQLLDNPARVMPAQLKVLSMTETCRYQPFKPLSIGGIIILKDTSEDIEELVEPVAAHGPKIEEEEQEPEPPEPFEYIDD
As to B2, the binding result is listed as “binds”.
